From paper doi:10.1101/261842

Biological target: GST conjugated GGA3 effector binding domain (UniProt Q9NZ52)
Experiment: pull-down

“Arf1 (active, GTP-bound form) (from UniProt P84078 1-181)” was tested, and the binding was “binds”.

Results are given in words; binding and its absence hold for the method and conditions named. In cells and extracts the contact can be indirect. Binding calls can cover weak binding; strength is not graded here.
